PubChem BioAssay AID743454, Peter MacCallum Cancer Centre | 2014
Screen: 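Search for knock-downs that restore vorinostat killing in resistant colon cancer cells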 (primary screen). Cells: human HCT116-VR colon cancer cells, selected for vorinostat resistance. Reagents: siRNA pool against human genes, 40 nM siRNA pool. Timing: vorinostat for 24 h, read-out about 72 h after transfection. Conditions: vorinostat at 2.5 µM final. Measurement: 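Two measures, CellTiter-Fluor viability and luminescent caspase 3/7 activity, each as fold change against same-plate mock wells, mean of duplicates, then screen-wide robust z-score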. Direction: viability robust z-score: higher = more viable cells than screen typical; caspase robust z-score: higher = more caspase 3/7 activity than screen typical. Rule for the call: 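a knock-down is a hit when classed RV1 or RV2 for lowered viability, or CA1 or CA2 for caspase activation; those lethal without drug were dropped; hits were retested singly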.
The whole screen tested about 18,000 reagents; this is a part drawn at random. 450 of all reagents (2.5%) count as active. 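Single biological run; no consistent viability z cut-off exists, so the class columns, not z-scores, define the calls.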 Reagent sequences are not shown.

Which result is listed for MRM2?
viability hit class: no change; caspase hit class: no change; viability robust z-score: 1.01; caspase robust z-score: 0.1; Call: inactive

Which result is listed for ITGB1BP2?
viability hit class: no change; caspase hit class: CA1 (caspase activation); viability robust z-score: 1.67; caspase robust z-score: 5.13; Call: active

What is on record for LRRC75A?
viability hit class: no change; caspase hit class: no change; viability robust z-score: -0.22; caspase robust z-score: -0.15; Call: inactive

Which result is listed for MNS1?
viability hit class: no change; caspase hit class: no change; viability robust z-score: -0.66; caspase robust z-score: -1.05; Call: inactive

For DYNLT2B, what does the deposit list?
viability hit class: no change; caspase hit class: no change; viability robust z-score: 1.29; caspase robust z-score: 0.06; Call: inactive

What did the screen give for GGT5?
viability hit class: no change; caspase hit class: no change; viability robust z-score: -0.7; caspase robust z-score: 1.01; Call: inactive

For LRRC2, what does the deposit list?
viability hit class: no change; caspase hit class: no change; viability robust z-score: -0.24; caspase robust z-score: -0.37; Call: inactive

With NDRG4, what does the deposit list?
viability hit class: no change; caspase hit class: no change; viability robust z-score: -0.97; caspase robust z-score: -1.16; Call: inactive

How did the screen score GLUD1?
viability hit class: no change; caspase hit class: no change; viability robust z-score: 0.02; caspase robust z-score: 2.76; Call: inactive

Which result is listed for AMN1?
viability hit class: no change; caspase hit class: no change; viability robust z-score: 0.79; caspase robust z-score: -0.38; Call: inactive

What did the screen give for MPIG6B?
viability hit class: no change; caspase hit class: no change; viability robust z-score: 1.12; caspase robust z-score: 0.82; Call: inactive

What is on record for PACS2?
viability hit class: no change; caspase hit class: no change; viability robust z-score: 0.84; caspase robust z-score: -0.72; Call: inactive

Which result is listed for SLC35A4?
viability hit class: no change; caspase hit class: no change; viability robust z-score: -0.37; caspase robust z-score: 1.88; Call: inactive

Which result is listed for DENND1A?
viability hit class: no change; caspase hit class: no change; viability robust z-score: 0.26; caspase robust z-score: -0.78; Call: inactive

What did the screen give for YBEY?
viability hit class: no change; caspase hit class: no change; viability robust z-score: -0.76; caspase robust z-score: -0.61; Call: inactive

For EIF4G3, what was measured?
viability hit class: no change; caspase hit class: no change; viability robust z-score: -0.63; caspase robust z-score: -1.3; Call: inactive

Active calls, of those listed so far:
ITGB1BP2 → viability hit class: no change; caspase hit class: CA1 (caspase activation); viability robust z-score: 1.67; caspase robust z-score: 5.13; Call: active

Further results follow.
What did the screen give for RFXAP?
viability hit class: no change; caspase hit class: no change; viability robust z-score: -0.5; caspase robust z-score: 2.02; Call: inactive

For PSMG3, how do the results read?
viability hit class: no change; caspase hit class: no change; viability robust z-score: 0.06; caspase robust z-score: 0.73; Call: inactive

For AMIGO3, what does the deposit list?
viability hit class: no change; caspase hit class: no change; viability robust z-score: 1.56; caspase robust z-score: -0.76; Call: inactive

With TMEM116, what was measured?
viability hit class: no change; caspase hit class: no change; viability robust z-score: -0.16; caspase robust z-score: 0.77; Call: inactive

For TREM2, how do the results read?
viability hit class: no change; caspase hit class: no change; viability robust z-score: -1.8; caspase robust z-score: 4.64; Call: inactive

With POLR2H, what was measured?
viability hit class: no change; caspase hit class: no change; viability robust z-score: -0.78; caspase robust z-score: 2.75; Call: inactive

What did the screen give for TAP1?
viability hit class: no change; caspase hit class: no change; viability robust z-score: -1.02; caspase robust z-score: -0.7; Call: inactive

For DEFB115, how do the results read?
viability hit class: no change; caspase hit class: no change; viability robust z-score: 0.05; caspase robust z-score: -0.8; Call: inactive

With C6orf118, how do the results read?
viability hit class: no change; caspase hit class: no change; viability robust z-score: -2.33; caspase robust z-score: -0.48; Call: inactive

With PCDHB4, what was measured?
viability hit class: no change; caspase hit class: no change; viability robust z-score: -0.97; caspase robust z-score: -0.23; Call: inactive

Which result is listed for FIGNL2?
viability hit class: no change; caspase hit class: no change; viability robust z-score: 0.44; caspase robust z-score: 0.53; Call: inactive
